This is one part of the list. Shown are side measurements of this screen, not its main read-out; they come without a call. The list favours compounds with an active or inconclusive main result. Words in brackets tell the shape of the fitted curve; partial curves, single points and poor fits give uncertain potencies.
Experiment: qHTS Assay to Find Inhibitors of Chronic Active B-Cell Receptor Signaling
Conditions: ABC-DLBCL IkBa-CBG/CBR reporter, luminescence ratio (green luciferase fused to IkBa over red control in TMD8 lymphoma cells), 4 h
In short: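 TMD8 ABC-DLBCL cells carrying doxycycline-inducible green luciferase fused to IkappaBalpha plus unfused red luciferase were exposed to compounds (up to 46 uM) for 4 hrs at 37C. Activity came from the overlap-corrected green/red luminescence ratio.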

[1] = measured here: CBR red luminescence, cell number
[2] = measured here: IkBa-CBG green luminescence

SMILES	AC50 [1]	AC50 [2]
CCOC(=O)/C=c1\s/c(=C(\C#N)C(N)=O)n(-c2ccccc2)c1=O	15.8 µM [falling, single point]	
Cc1cc(C)c(CSc2ncc(-c3ccc([N+](=O)[O-])cc3)[nH]2)c(C)c1	35.5 µM [falling, single point]	
O=C(Nc1nnc(-c2ccccn2)o1)c1cccc(Cl)c1	7.94 µM [falling, partial curve]	
CN(C)c1ccc(C(=S)Nc2ccccc2)cc1	14.6 µM [falling, single point]	
CCCC(=O)Nc1ccc(NC(=O)c2ccccc2Cl)nc1	20.6 µM [falling, partial curve, poor fit]	
CCOC(=O)c1snc(C(=O)NC2CCCCC2)c1N	13 µM [falling, partial curve]	
CC(C)c1ccc(NC(=O)C2CCCN(S(=O)(=O)c3cnc[nH]3)C2)cc1 (stereo not drawn)	20.6 µM [falling, partial curve, poor fit]	
CCOC(=O)Nc1cccc2ccccc12	12.6 µM [falling, partial curve, poor fit]	
C=CCn1cc(C(=O)OC)c(=O)c2cc(S(=O)(=O)N(CC)CC)ccc21	16.4 µM [falling, partial curve, poor fit]	
Cc1nc(-c2ccccc2)sc1C(=O)/C=C/c1ccc(Cl)cc1	12.6 µM [rising, single point]	
COc1ccccc1NC(=O)COC(=O)c1ccccn1	11.2 µM [falling, single point]	
COc1ccc(C(=O)Cn2cnc3ccc(Cl)cc3c2=O)cc1F	3.98 µM [rising, single point]	
Cc1ccc(OCC(=O)NNC(=S)NC(=O)C2CC2)c(C)c1	31.6 µM [falling, single point]	35.5 µM [rising, partial curve, poor fit]
O/C(=C\Sc1nnc(Cc2ccccc2)o1)c1ccc(F)cc1	0.58 µM [falling, full curve, poor fit]	
CCOC(=O)C1CCCN(C(=O)c2ccc3c(c2)N(C)C(=O)/C(=C/c2ccccc2Cl)S3)C1 (stereo not drawn)	10 µM [falling, partial curve]	
COc1ccc(OC)c(-n2cnc3cc(C(=O)NCCCN4CCOCC4)ccc32)c1	10 µM [rising, partial curve]	
COc1cc(C(=O)OCC(=O)NC(=O)c2cccn2C)ccc1OC(F)F	35.5 µM [rising, single point]	
CCOC(=O)N1CCC(N2Cc3cccc(C(=O)Nc4ccccc4OC)c3C2=O)CC1	12.6 µM [falling, partial curve, poor fit]	
Cc1cc(N2C3CCC2CC(O)(c2ccc(F)cc2)C3)nc(-c2ccccc2)n1 (stereo not drawn)	18.4 µM [falling, single point]	
CC1CC(NC(=O)/C=C/C(=O)O)CC(C)(C)C1 (stereo not drawn)	3.55 µM [rising, partial curve]	
COc1ccccc1NC(=O)COc1ccccc1C(=O)Nc1ccccc1	20 µM [falling, single point]	

A draw from above in order of count of non-hydrogen atoms, smallest number first:
SMILES	AC50 [1]	AC50 [2]
O=C(Nc1nnc(-c2ccccn2)o1)c1cccc(Cl)c1	7.94 µM [falling, partial curve]	
COc1ccc(OC)c(-n2cnc3cc(C(=O)NCCCN4CCOCC4)ccc32)c1	10 µM [rising, partial curve]	
CCOC(=O)C1CCCN(C(=O)c2ccc3c(c2)N(C)C(=O)/C(=C/c2ccccc2Cl)S3)C1 (stereo not drawn)	10 µM [falling, partial curve]	

The list goes on.

SMILES	AC50 [1]	AC50 [2]
Cc1c(C(=O)N2CCOCC2)c(S(=O)(=O)Nc2ccc(F)cc2)c(C)n1C	35.5 µM [falling, single point]	
C/C(=N/NC(=O)CNS(=O)(=O)c1ccc(C)cc1)c1cccc([N+](=O)[O-])c1	35.5 µM [rising, single point]	
COc1ccc(NC(=O)c2ccccc2F)cc1Cl	18.4 µM [falling, single point]	
O=C(CCCN1C(=O)/C(=C\c2ccco2)SC1=S)Nc1cccc2ccccc12	29.1 µM [falling, single point]	
COc1ccccc1CCn1cc(C#N)c(=O)[nH]c1=O	11.2 µM [rising, partial curve, poor fit]	
FC(F)(F)Oc1ccc(Nc2nc3ccccc3o2)cc1	2.24 µM [rising, full curve]	
CCCCCCc1cc2cc(C(=O)Nc3cccc(OC)c3)c(=O)oc2cc1O	6.51 µM [falling, partial curve]	
O=C(COc1ccccc1Cl)NC(=S)N1CCc2ccccc21	14.1 µM [rising, partial curve, poor fit]	
CCCCNc1c(-c2cccc(-c3ccc(OC)cc3)c2)nc2ccc(C)cn12	7.31 µM [falling, partial curve]	
O=C(NC(=S)NNC(=O)c1ccc(Cl)cc1Cl)c1cccnc1	29.1 µM [falling, single point]	
CN1C(=O)c2cccc(NCCCCCCN3C(=O)c4ccccc4C3=O)c2C1=O	3.66 µM [rising, single point]	
O=C(Cn1c(=O)n(Cc2ccccc2)c(=O)c2ccccc21)NCc1ccco1	6.51 µM [rising, single point]	
FC(F)(F)c1cccc(Sc2cc(C(F)(F)F)nc(-c3ccccn3)n2)c1	0.112 µM [falling, full curve, poor fit]	
COc1ccc(Cc2noc(CN3CCN(Cc4cccc(Cl)c4)CC3)n2)cc1OC	2.51 µM [rising, partial curve, poor fit]	
CCc1cc2c(SCC(=O)N3CC(=O)Nc4ccccc43)ncnc2s1	3.66 µM [rising, full curve]	
CCOc1ccccc1OCC(=O)Nc1ccc(N2CCOCC2)cc1N1CCOCC1	5.8 µM [rising, full curve, poor fit]	
O=C(COc1ccc(S(=O)(=O)NCc2ccccc2)cc1)N1CCOCC1	29.1 µM [rising, single point]	
CCCN(CCC)C(=O)CC(c1ccc(F)cc1)c1ccco1 (stereo not drawn)	1.3 µM [falling, full curve, poor fit]	
O=C(NC(=S)Nc1ccc2ncccc2c1)c1ccccc1	5.01 µM [falling, partial curve]	
CCOc1ccc(C(=O)/C=C/Nc2ccc(S(=O)(=O)N=C(N)N)cc2)cc1	13 µM [rising, partial curve, poor fit]	
Nc1cc(N2CCCC2)ccc1[N+](=O)[O-]		2.82 µM [falling, partial curve, poor fit]

Source: PubChem BioAssay AID493014 (National Center for Advancing Translational Sciences (NCATS), 2011)
